Laboratory results reported in US20240261279A1, “METHOD FOR TREATING LUNG CANCER” (priority 2021, published 2024).
Some entries share one result that the patent states for a list of compounds.

system: nuclear protein kinase C-δ; assay: confocal-based high-content screening measuring the quantity of nuclear protein kinase C-δ in GR10 cells; type: cell-based; conditions: 24 hours treatment, fluorescence intensity (FIG. 3)
Source text: Please refer to FIG. 1. […] To investigate the growth-inhibiting effect of the nuclear protein kinase C-δ inhibitor of the present disclosure on the non-small-cell lung cancer cells resistant to the epidermal growth factor receptor-tyrosine kinase inhibitor, the present experimental example utilizes the screening system shown in FIG. 1 to measure whether the nuclear protein kinase C-δ inhibitor of the present disclosure can inhibit the production of nuclear protein kinase C-δ in the cancer cells.
In the present experimental example, gefitinib-resistant non-small-cell lung cancer cells (gefitinib-resistant 10 cells, hereinafter “GR10 cells”) are used as the cell model. In Example 1 to Example 4, GR10 cells are respectively treated with nintedanib esylate (hereinafter “Nin”), ponatinib (hereinafter “Pon”), regorafenib (hereinafter “Reg”) or cobimetinib (hereinafter “Cob”) for 24 hours, and the quantity of nuclear protein kinase C-δ within the GR10 cells is determined by confocal-based high-content image analysis. On the other hand, the present experimental example further includes Comparative Example 1 and Comparative Example 2. GR10 cells are untreated in Comparative Example 1, and GR10 cells are treated with non-medical sotrastaurin (hereinafter “Sotra”) in Comparative Example 2.
The types and concentrations of the nuclear protein kinase C-δ inhibitors used in Example 1 to Example 4, Comparative Example 1 and Comparative Example 2 are shown in the following Table 1.
Please refer to FIG. 2A to FIG. 2F and FIG. 3. FIG. 2A to FIG. 2F respectively show immunofluorescence staining images of the GR10 cells after treatment of Example 1, Example 2, Example 3, Example 4, Comparative Example 1 and Comparative Example 2. FIG. 3 is a comparative diagram of fluorescence intensity of the GR10 cells after treatment of Example 1 to Example 4, Comparative Example 1 and Comparative Example 2. In FIG. 2A to FIG. 2F, the concentration of nuclear protein kinase C-δ is higher when the color of cells is lighter (closer to white).

Compound | concentration at which a great ability to inhibit nuclear protein kinase C-δ is performed
O=C(c1ccc(F)c(F)c1Nc1ccc(I)cc1F)N1CC(O)([C@@H]2CCCCN2)C1 [Cob, cobimetinib] | greater than 5 μM
COC(=O)c1ccc2c(c1)NC(=O)/C2=C(\Nc1ccc(N(C)C(=O)CN2CCN(C)CC2)cc1)c1ccccc1 [Nin, nintedanib esylate] | greater than 5 μM
CNC(=O)c1cc(Oc2ccc(NC(=O)Nc3ccc(Cl)c(C(F)(F)F)c3)c(F)c2)ccn1 [Reg, regorafenib] | greater than 5 μM
